Experimental data reported in US20240182575A1.
Numbering of substitutions follows the chain as printed. No constants are given. Whether binding was seen depends on the method and setting. Some entries that bind do so weakly or less than the wild type.

Amino acid sequences for entries named in this document (tags omitted). A change or cut given only in a name is not applied to a line headed by its entry. Chains listed by the source or under a name are the forms on record and can include a tag or linker.
human CTLA4 (Y201 mutated to valine) on stably transfected CHO-K1 cells (P16410, form named): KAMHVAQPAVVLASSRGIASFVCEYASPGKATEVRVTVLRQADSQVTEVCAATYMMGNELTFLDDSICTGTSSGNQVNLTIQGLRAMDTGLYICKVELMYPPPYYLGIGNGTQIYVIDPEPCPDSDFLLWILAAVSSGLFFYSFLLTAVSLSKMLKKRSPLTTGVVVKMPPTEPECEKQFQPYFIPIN

B1: CD8086PMP1E11 (VHH, not shown: small tags and cut ends)
VHH: EVQLVESGGGLVQPGGSLRLSCAASGFTLDYSAIGWFRQAPGKEREGVSYISSSDGSTYYADSVEGRFTISRDNAKNTLYLQMNSLKPEDTAVYYCAAGGPFTVSTMPWLANYWGQGTQVTVSS
B2: 4CTLAPMP11E3 (VHH, not shown: small tags and cut ends)
VHH: EVQLVESGGGLVEPGGSLRLSCAASGSISSYNVMGWYRQAPGQQRDLVAHIASNGEIMYADSAKGRFTISRDNAKKTVYLQMNSLKPEDTAVYYCKLWVLGNDYWGQGTQVTVSS
B3: 4CTLAPMP12H2 (VHH, not shown: small tags and cut ends)
VHH: B2 VHH with G108R

What was measured:
[1] = biological target: HuCD80-MuIgG2a (extracellular (173aa) domain of human CD80 fused to murine IgG2a Fc+hinge (232 aa), Ancell Cat #510-820) (human; mouse) (UniProt P33681); test: competition ELISA, coated CD80-Ig; blocked ligand CD28-Ig
[2] = biological target: HuCD80-MuIgG2a (extracellular (173aa) domain of human CD80 fused to murine IgG2a Fc+hinge (232 aa), Ancell Cat #510-820) (human; mouse) (UniProt P33681); test: competition ELISA, coated CD80-Ig; blocked ligand CTLA4-Ig
[3] = biological target: human CTLA4 (Y201 mutated to valine) on stably transfected CHO-K1 cells (human) (UniProt P16410); test: FACS competition, human CTLA4 CHO cells; blocked ligand CD80-Fc

Binder | binding [1] | binding [2] | binding [3]
B1 | binds | binds | 
B2 |  |  | binds
B3 |  |  | binds
